# Reference: PubChem BioAssay AID540256 (National Center for Advancing Translational Sciences (NCATS), 2011)
# Among all 300,000 compounds or so, about 3,700 (1.2%) were called active. The inconclusive results got no clear call from the source; some entries with a clear call stand among them for comparison. The call rests on the fitted dose curve; tested in HEK293 cells. Potencies beside an inconclusive call are fits to weak or partial responses and may not hold up.
# Test: qHTS for Inhibitors of binding or entry into cells for Lassa Virus; further: nearly all actives have a fitted effect of over 50% in size
# Conditions: Lassa virus pseudotype entry inhibition, cell reporter; series mostly up to 37.9 µM
# Potency means the concentration at half of the fitted maximal effect.
row,Compound,Potency
1,COc1ccc(Nc2ccc(S(=O)(=O)N3CCCCCC3)cc2[N+](=O)[O-])cc1,"inconclusive: 28.2 µM [inhibitor, single point]"
2,CCOC(=O)N1CCC(=NNS(=O)(=O)c2cccc([N+](=O)[O-])c2)CC1,inactive
3,COc1ccc(OC)c(-c2csc(NC(=O)C3c4ccccc4Oc4ccccc43)n2)c1,"inconclusive: 0.794 µM [activator, full curve, poor fit]"
4,O=C(NCCCC1CCCC1)C1CCC(=O)N(Cc2ccc(Cl)cc2)C1 (centres undefined),"inconclusive: 28.2 µM [inhibitor, partial curve, poor fit]"
5,COc1ccc(/C=N/NC(=O)c2ccc(-c3ccccc3)cc2)cc1O,"inconclusive: 25.9 µM [inhibitor, partial curve, poor fit]"
6,COc1ccc2nc(NC(=O)c3nc(SC(C)C)ncc3Cl)sc2c1,inactive
7,Cc1ccc(C(=O)N2CCN(c3ccc(NC(=O)c4ccc(Br)o4)cc3)CC2)cc1,"inconclusive: 14.1 µM [inhibitor, single point]"
8,Cc1ccc(C(CC(=O)NCc2ccco2)c2ccc(OC(C)C)cc2)cc1 (centres undefined),inactive
9,OC(CN1CCN(Cc2ccccc2)CC1)c1ccc(F)cc1 (centres undefined),"inconclusive: 20.6 µM [inhibitor, single point]"
10,N#CC12CCCCC1CC1CCCCC1(C#N)N2N (centres undefined),"inconclusive: 6.31 µM [inhibitor, single point]"
11,COc1cccc(CN(C)C(=O)C(Cc2ccccc2)NC(=O)c2ccccc2)c1OC (centres undefined),"inconclusive: 11.2 µM [inhibitor, partial curve, poor fit]"
12,COc1cccc(N2CCN(C(=O)CN3C(=O)NC4(CCCC4)C3=O)CC2)c1,"inconclusive: 1.26 µM [inhibitor, single point]"
13,Cc1ccc(OCC(=O)Nc2ccc3nc(SCC(=O)N4CCOCC4)sc3c2)cc1,"inconclusive: 31.6 µM [activator, single point]"
14,CC(C)OP(=O)(OC(C)C)C(O)c1cccc([N+](=O)[O-])c1 (centres undefined),"inconclusive: 12.6 µM [activator, single point]"
15,CCC(C(=O)O/N=C(\N)c1ccccc1)c1ccccc1 (centres undefined),"inconclusive: 20.6 µM [inhibitor, single point]"
16,Cc1nn(C)c2c1c(-c1ccccc1)cc(=O)n2CC(=O)Nc1ccccc1C(F)(F)F,"inconclusive: 28.2 µM [activator, single point]"
17,O=C(CNS(=O)(=O)/C=C/c1ccccc1)OCC(=O)N1CCC(Cc2ccccc2)CC1,"inconclusive: 0.126 µM [activator, full curve, poor fit]"
18,COc1ccc(Nc2nc(N/N=C/c3ccc(N(C)C)cc3)nc(C)c2[N+](=O)[O-])cc1,"inconclusive: 22.4 µM [inhibitor, single point]"
19,CS(=O)(=O)c1ccc(C(=O)OCc2nnc(-c3ccc(Cl)cc3)o2)cc1[N+](=O)[O-],"inconclusive: 35.5 µM [inhibitor, single point]"
20,C=CCn1c(C)cc(C(=O)COC(=O)c2n[nH]c(=O)c3ccccc23)c1C,"inconclusive: 25.1 µM [inhibitor, single point]"

row,Compound,Potency
1,O=C(CNC(=O)c1ccco1)NCC(=O)OCc1cccc(C(=O)Oc2ccccc2)c1,"inconclusive: 11.6 µM [activator, partial curve, poor fit]"
2,Cc1cccc(NC(=O)C2CCC(CNS(=O)(=O)c3csc(C(N)=O)c3)CC2)c1C (centres undefined),inactive
3,O=c1oc2ccc3ccccc3c2cc1-c1nnc(-c2cccs2)o1,"inconclusive: 35.5 µM [activator, single point]"
4,Cc1c(C)n(Cc2ccccc2)c2ccc(C(=O)OCCCN(C)C)cc12,"inconclusive: 35.5 µM [inhibitor, single point]"
5,Cn1c(N)c(C(=O)COC(=O)C2(c3ccc(F)cc3)CCCC2)c(=O)n(C)c1=O,inactive
6,Cc1ccc(S(=O)(=O)c2nc(S(C)(=O)=O)sc2N(C)Cc2ccccc2)cc1,"inconclusive: 4.47 µM [inhibitor, full curve, poor fit]"
7,CCOC(=O)c1cccc(NC(=O)c2cc3c(-c4cccc(OC)c4)nn(C)c3s2)c1,"inconclusive: 25.1 µM [inhibitor, single point]"
8,Cc1ccc(N(C(=O)c2snc(C(N)=O)c2N)C(C(=O)NCC2CCCO2)c2ccc(C)o2)c(C)c1 (centres undefined),"inconclusive: 11.2 µM [inhibitor, partial curve, poor fit]"
9,CC(=O)c1cccc(NC(=O)c2ccc(N(C)S(C)(=O)=O)cc2)c1,inactive
10,Cc1nc2c(c(C)c1CCC(=O)NCc1ccccc1)c(=O)n(C)c(=O)n2C,"inconclusive: 31.6 µM [activator, single point]"
11,COc1cc2ncn(-c3cc(OCc4cccs4)c(C(N)=O)s3)c2cc1OC,"inconclusive: 1.99 µM [inhibitor, full curve]"
12,Cc1cc(/C=C2/SC(=S)N(c3cccc(Cl)c3)C2=O)c(C)n1-c1cccnc1,"inconclusive: 11.2 µM [inhibitor, partial curve, poor fit]"
13,COc1ccc(CCNC(=O)CCCCCNc2nc(=S)[nH]c3ccccc23)cc1OC,"inconclusive: 1 µM [inhibitor, single point]"
14,CN(c1ccc(C(=O)Nc2cccnc2)cc1)S(=O)(=O)c1ccc(Cl)cc1,"inconclusive: 6.31 µM [activator, single point]"
15,COc1ccc(N(CC(=O)NC2CC3CCC2C3)S(=O)(=O)c2ccc(C)cc2)cc1 (centres undefined),"inconclusive: 17.8 µM [inhibitor, single point]"
16,COc1ccc(OC)c(S(=O)(=O)Nc2ccc(-c3ccc4nncn4n3)cc2)c1,inactive
17,CCN(CC)C(=O)CCSc1nnc(-c2ccncc2)o1,"inconclusive: 6.31 µM [inhibitor, single point]"
18,COC1OC(O)C(NC(=O)C(F)(F)F)CC1O (centres undefined),inactive
19,Cc1ccc(OCC(=O)Nc2ccc(Cl)c(-c3nc4ncccc4o3)c2)c(C)c1,"inconclusive: 39.8 µM [inhibitor, partial curve, poor fit]"

# Molecules shown so far that have a thiophene ring, fused or not:
row,Compound,Potency
2,Cc1cccc(NC(=O)C2CCC(CNS(=O)(=O)c3csc(C(N)=O)c3)CC2)c1C (centres undefined),inactive
3,O=c1oc2ccc3ccccc3c2cc1-c1nnc(-c2cccs2)o1,"inconclusive: 35.5 µM [activator, single point]"
7,CCOC(=O)c1cccc(NC(=O)c2cc3c(-c4cccc(OC)c4)nn(C)c3s2)c1,"inconclusive: 25.1 µM [inhibitor, single point]"
11,COc1cc2ncn(-c3cc(OCc4cccs4)c(C(N)=O)s3)c2cc1OC,"inconclusive: 1.99 µM [inhibitor, full curve]"
